The results in this text go back to publication PMC10400651.

In this data set the target is p53 WT (LNCaP lysate) (UniProt P04637). Kind of data set: EMSA. Conditions: Thermo EMSA kit (20148) protocol; 6% native PAGE; supershift with 1 ug anti-p53 for 1 h at room temperature; recombinant p53 eluted in PBS; salt and pH not stated; protein in an extract; label: biotin.

The exact form of at least one protein or probe is not confirmed. At least one result comes from cells or an extract, where the contact may be indirect. Negatives hold for the conditions tested.

Turning to “GCCCCCTCGCGCCCCGCCCCTTGTC (double strand) [CTNNB1-probe1 (MP53BS)]”, the binding result is “no binding”.
